According to US20160068604A1 (University of Texas, published 2016):
Results are given in words; binding and its absence hold for the method and conditions named. Some binding calls cover weakened binding; strength is not graded here.

Tests used:
human OX40 [1] = target: T1, human OX40 (human, UniProt P43489 29-277); assay: flow cytometry on mixed SUPM2 and SUPM2-hOX40 cells
T1 construct: whole, on cells; also called hOX40; OX40 receptor
T1 sequence (looked up): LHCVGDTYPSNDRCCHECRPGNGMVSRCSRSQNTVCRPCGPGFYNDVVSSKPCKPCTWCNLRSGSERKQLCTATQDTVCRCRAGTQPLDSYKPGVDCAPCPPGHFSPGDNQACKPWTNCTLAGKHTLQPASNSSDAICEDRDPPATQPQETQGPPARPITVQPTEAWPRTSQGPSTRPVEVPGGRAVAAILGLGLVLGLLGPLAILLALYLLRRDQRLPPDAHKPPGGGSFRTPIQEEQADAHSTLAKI

human OX40 [2] = target: T1, human OX40; assay: cell ELISA on dried L-hOX40 versus parental L cells, anti-mouse IgG Fc HRP
Description: In the experiment of FIG. 10, hOX40 hybridoma supernatants were screened against L-hOX40 versus L parental cells by ELISA. […] Plates were then frozen at −20° C. for at least one day before use. For antibody binding assays, frozen cells were rehydrated with PBS and washed with wash buffer containing PBS plus 0.05% Tween 20, and blocked with 2% BSA in wash buffer. Conditioned cells were then used for binding to OX40 antibody supernatants.

human OX40 [3] = target: T1, human OX40; assay: flow cytometry on mixed L and L-hOX40 cells, 0.5 µg purified antibody, PE anti-mouse IgG

Measured: binding

B1: mouse anti-human OX40 monoclonal antibody 119-43 (antibody, V domains shown)
VH: EVKLEESGGGLVQPGGSMKLSCAASGFTFSDAWMDWVRQSPEKGLEWVAEIRSKANNHATYYAESVNGRFTISRDDSKSSVYLQMNSLRAEDTGIYYCTWGEVFYFDYWGQGTTLTVSS
VL: DIQMTQSPSSLSASLGGKVTITCKSSQDINKYIAWYQHKPGKGPRLLIHYTSTLQPGIPSRFSGSGSGRDYSFSISNLEPEDIATYYCLQYDNLLTFGAGTKLELK
binds: all assays above
